Results: paper PMC9130917
Results are given in words; binding and its absence hold for the method and conditions named. In cells and extracts the contact can be indirect. Some entries that bind do so weakly or less than the wild type.

Chains of the proteins cited; added tags and fusions are not shown.
UniProt Q9P2J5: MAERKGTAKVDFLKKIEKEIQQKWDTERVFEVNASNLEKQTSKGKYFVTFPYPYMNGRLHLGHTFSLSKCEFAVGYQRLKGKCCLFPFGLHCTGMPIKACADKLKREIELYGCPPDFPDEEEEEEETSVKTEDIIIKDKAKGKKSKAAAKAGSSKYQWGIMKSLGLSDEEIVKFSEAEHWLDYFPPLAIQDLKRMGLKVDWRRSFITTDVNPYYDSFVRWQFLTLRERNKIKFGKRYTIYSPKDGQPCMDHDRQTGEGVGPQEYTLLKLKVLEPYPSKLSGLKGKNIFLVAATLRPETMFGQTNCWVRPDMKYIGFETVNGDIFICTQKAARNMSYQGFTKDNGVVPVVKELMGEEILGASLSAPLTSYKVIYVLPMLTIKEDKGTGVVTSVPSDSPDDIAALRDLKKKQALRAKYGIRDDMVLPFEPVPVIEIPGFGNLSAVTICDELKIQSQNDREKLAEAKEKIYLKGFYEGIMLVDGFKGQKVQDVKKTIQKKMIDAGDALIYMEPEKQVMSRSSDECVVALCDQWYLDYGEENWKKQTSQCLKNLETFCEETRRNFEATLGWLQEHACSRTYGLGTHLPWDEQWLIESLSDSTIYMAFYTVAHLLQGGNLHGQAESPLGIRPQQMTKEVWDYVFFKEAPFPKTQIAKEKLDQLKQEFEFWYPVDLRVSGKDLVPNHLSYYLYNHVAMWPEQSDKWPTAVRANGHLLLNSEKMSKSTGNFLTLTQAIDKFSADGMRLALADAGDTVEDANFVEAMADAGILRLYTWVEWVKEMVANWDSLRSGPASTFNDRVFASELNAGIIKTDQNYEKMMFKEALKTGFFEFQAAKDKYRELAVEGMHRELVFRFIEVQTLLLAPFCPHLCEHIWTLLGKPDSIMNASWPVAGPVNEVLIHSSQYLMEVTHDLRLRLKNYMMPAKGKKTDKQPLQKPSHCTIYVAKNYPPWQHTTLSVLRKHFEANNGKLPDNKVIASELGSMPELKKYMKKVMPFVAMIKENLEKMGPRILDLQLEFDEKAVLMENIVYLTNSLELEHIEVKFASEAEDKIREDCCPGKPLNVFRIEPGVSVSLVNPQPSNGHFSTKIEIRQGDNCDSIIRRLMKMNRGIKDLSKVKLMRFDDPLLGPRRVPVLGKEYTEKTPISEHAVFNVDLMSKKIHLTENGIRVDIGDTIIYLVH
UniProt Q8BMJ2: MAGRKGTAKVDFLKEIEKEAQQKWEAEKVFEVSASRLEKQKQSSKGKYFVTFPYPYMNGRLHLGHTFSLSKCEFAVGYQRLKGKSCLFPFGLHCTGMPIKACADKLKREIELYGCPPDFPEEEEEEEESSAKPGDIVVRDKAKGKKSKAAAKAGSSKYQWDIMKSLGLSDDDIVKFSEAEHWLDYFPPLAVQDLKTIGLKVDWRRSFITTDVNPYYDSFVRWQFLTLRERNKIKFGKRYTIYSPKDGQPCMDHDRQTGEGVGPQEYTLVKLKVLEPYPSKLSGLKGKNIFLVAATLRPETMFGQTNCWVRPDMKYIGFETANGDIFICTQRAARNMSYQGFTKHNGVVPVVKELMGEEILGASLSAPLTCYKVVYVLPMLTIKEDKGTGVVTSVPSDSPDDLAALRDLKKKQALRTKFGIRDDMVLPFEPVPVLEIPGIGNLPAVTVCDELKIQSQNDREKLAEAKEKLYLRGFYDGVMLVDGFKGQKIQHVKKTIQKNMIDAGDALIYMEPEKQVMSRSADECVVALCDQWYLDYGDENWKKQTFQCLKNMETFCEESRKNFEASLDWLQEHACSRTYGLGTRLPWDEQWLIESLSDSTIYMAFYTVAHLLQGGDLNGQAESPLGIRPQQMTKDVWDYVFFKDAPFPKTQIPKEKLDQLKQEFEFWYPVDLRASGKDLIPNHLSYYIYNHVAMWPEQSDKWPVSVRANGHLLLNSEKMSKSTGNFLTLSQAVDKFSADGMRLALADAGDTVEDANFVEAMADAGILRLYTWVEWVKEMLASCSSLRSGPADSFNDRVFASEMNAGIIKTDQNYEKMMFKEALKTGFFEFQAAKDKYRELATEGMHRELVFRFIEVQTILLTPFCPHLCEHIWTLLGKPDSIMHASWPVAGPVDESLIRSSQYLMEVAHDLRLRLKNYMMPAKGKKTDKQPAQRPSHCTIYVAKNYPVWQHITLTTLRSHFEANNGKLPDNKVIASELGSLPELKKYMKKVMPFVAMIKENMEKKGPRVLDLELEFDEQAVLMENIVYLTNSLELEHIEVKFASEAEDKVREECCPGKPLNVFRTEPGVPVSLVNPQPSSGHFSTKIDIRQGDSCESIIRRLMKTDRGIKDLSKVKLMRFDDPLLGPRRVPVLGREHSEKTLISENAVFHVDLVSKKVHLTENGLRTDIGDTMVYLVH

Assays:
[1] = target: leucyl-tRNA synthetase (LARS), exogenous, for coimmunoprecipitation (UniProt Q9P2J5); assay: co-IP; coimmunoprecipitation of exogenous TBX5 and LARS in cultured cells (HL-1 as the text reads)
[2] = target: leucyl-tRNA synthetase (LARS), endogenous in HL-1 cells (mouse (endogenous in HL-1)) (UniProt Q8BMJ2); assay: co-IP; coimmunoprecipitation of endogenous TBX5 and LARS in the mouse cardiac muscle cell line HL-1

B1: T-box transcription factor 5 (TBX5), exogenous, for coimmunoprecipitation with LARS (protein, UniProt Q99593 1-518)
chain: MADADEGFGLAHTPLEPDAKDLPCDSKPESALGAPSKSPSSPQAAFTQQGMEGIKVFLHERELWLKFHEVGTEMIITKAGRRMFPSYKVKVTGLNPKTKYILLMDIVPADDHRYKFADNKWSVTGKAEPAMPGRLYVHPDSPATGAHWMRQLVSFQKLKLTNNHLDPFGHIILNSMHKYQPRLHIVKADENNGFGSKNTAFCTHVFPETAFIAVTSYQNHKITQLKIENNPFAKGFRGSDDMELHRMSRMQSKEYPVVPRSTVRQKVASNHSPFSSESRALSTSSNLGSQYQCENGVSGPSQDLLPPPNPYPLPQEHSQIYHCTKRKEEECSTTDHPYKKPYMETSPSEEDSFYRSSYPQQQGLGASYRTESAQRQACMYASSAPPSEPVPSLEDISCNTWPSMPSYSSCTVTTVQPMDRLPYQHFSAHFTSGPLVPRLAGMANHGSPQLGEGMFQHQTSVAHQPVVRQCGPQTGLQSPGTLQPPEFLYSHGVPRTLSPHQYHSVHGVGMVPEWSDNS
Q: With B1 as the binder, how does the binding [1] read?
A: binds

B2: T-box transcription factor 5 (TBX5), endogenous in HL-1 cells (protein, UniProt P70326 1-518)
chain: MADTDEGFGLARTPLEPDSKDRSCDSKPESALGAPSKSPSSPQAAFTQQGMEGIKVFLHERELWLKFHEVGTEMIITKAGRRMFPSYKVKVTGLNPKTKYILLMDIVPADDHRYKFADNKWSVTGKAEPAMPGRLYVHPDSPATGAHWMRQLVSFQKLKLTNNHLDPFGHIILNSMHKYQPRLHIVKADENNGFGSKNTAFCTHVFPETAFIAVTSYQNHKITQLKIENNPFAKGFRGSDDLELHRMSRMQSKEYPVVPRSTVRHKVTSNHSPFSSETRALSTSSNLGSQYQCENGVSGPSQDLLPPPNPYPLAQEHSQIYHCTKRKDEECSSTEHPYKKPYMETSPSEEDTFYRSGYPQQQGLSTSYRTESAQRQACMYASSAPPSEPVPSLEDISCNTWPSMPSYSSCTVTTVQPMDRLPYQHFSAHFTSGPLVPRLAGMANHGSPQLGEGMFQHQTSVAHQPVVRQCGPQTGLQSPGGLQPPEFLYTHGVPRTLSPHQYHSVHGVGMVPEWSENS
Q: B2 was tested. Which binding [2] did it give?
A: binds
